No constants are given. Whether binding was seen depends on the method and setting. In cells and extracts the contact can be indirect. These calls come from enrichment with a bait or labelling near it, and not all partners need be listed. Tags and fused reporters may be left off the sequences shown.
Molecular target: T1, PIP5Kinase Skittles (SKTL), GFP-tagged (D. melanogaster) (UniProt Q9W2R3)
T1 sequence: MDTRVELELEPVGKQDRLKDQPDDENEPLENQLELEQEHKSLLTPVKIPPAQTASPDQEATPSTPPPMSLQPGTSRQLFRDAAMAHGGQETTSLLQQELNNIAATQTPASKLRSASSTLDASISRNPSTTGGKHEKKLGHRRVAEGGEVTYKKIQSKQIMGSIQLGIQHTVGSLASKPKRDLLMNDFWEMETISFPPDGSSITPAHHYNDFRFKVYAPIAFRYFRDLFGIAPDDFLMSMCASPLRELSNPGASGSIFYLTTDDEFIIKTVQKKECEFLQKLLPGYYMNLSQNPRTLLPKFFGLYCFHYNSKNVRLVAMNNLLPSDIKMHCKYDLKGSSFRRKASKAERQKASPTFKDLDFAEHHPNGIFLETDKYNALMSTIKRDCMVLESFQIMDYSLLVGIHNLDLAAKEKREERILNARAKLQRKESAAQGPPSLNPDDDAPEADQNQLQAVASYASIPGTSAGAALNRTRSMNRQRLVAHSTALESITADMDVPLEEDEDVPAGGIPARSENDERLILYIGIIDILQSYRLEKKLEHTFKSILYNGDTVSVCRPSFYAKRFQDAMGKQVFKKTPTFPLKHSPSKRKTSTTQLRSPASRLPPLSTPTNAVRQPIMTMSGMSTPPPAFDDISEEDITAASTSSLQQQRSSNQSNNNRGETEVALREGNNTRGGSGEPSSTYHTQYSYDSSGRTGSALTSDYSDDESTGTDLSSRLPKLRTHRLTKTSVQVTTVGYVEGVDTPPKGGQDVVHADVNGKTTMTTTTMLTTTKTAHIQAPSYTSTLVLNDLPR
Assay: affinity purification with mass spectrometry; S2 cells transfected with SKTL-GFP vector or not (control), harvested 3 days later; immunoprecipitation by Chromotek standard procedures; trypsin digestion; LTQ Velos Orbitrap

binding: binds
B1: dynein light intermediate chain (DLIC), endogenous in S2 cells (protein, UniProt Q9VZ20 1-493)
chain: MAMNSGTQTNALTSSFTMKKKDAAAEKENLWSAILNEVQTQGSTKLPSNKSVLVLGDNATGKTTLIAKLQGVEDPKKGSGLEYAYIDVKDEYRDDMTRLGVWVLDGDPGHTNLLHYALNETNYAHTLVILTVSMTQPWGWLEQLNHWIKVLGQHIDSLQLDAKEKEAARQRLTTTWQSYCEVGDDLDPGSPVKRTMRNNSIDEDDLLPLTEDALITNLGLDIVVVVTKTDYMTTLEKEYEYRDEHFDFIQQWIRNFCLRHGTSLFYTSVKEDKNCDVLYKYLTHRIYGLPFRTPALVVEKDAVLIPAGWDSLKKISILYENMHGVKAENPYTDIIKSPPTRKAVSNREAEVQTEDEQAFLARQQEILKQGDQVRGESPLRSQGVGSNKSGPRTPGTTGQSSPKKIDPKLTPATPGAEGVLANFFNSLLHKKSGSPGTGGPGGAGNPAGPGRTANGTDAVMTPEKLAVRTDAAAELDRLSRSVKKEIDMSQSEC

Reference: article PMC6358217
